# Reference: paper PMC4446442
# Amino acid sequences for entries named in this document (tags omitted).
# UniProt P16370: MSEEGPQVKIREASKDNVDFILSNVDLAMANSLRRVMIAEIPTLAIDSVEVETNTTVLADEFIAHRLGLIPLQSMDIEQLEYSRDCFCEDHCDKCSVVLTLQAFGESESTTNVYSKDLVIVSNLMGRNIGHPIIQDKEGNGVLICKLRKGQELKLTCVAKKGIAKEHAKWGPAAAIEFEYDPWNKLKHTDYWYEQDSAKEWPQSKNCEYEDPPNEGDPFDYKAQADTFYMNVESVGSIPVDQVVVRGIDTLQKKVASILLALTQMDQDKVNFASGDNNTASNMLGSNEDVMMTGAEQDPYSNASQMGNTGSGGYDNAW
# UniProt P08518: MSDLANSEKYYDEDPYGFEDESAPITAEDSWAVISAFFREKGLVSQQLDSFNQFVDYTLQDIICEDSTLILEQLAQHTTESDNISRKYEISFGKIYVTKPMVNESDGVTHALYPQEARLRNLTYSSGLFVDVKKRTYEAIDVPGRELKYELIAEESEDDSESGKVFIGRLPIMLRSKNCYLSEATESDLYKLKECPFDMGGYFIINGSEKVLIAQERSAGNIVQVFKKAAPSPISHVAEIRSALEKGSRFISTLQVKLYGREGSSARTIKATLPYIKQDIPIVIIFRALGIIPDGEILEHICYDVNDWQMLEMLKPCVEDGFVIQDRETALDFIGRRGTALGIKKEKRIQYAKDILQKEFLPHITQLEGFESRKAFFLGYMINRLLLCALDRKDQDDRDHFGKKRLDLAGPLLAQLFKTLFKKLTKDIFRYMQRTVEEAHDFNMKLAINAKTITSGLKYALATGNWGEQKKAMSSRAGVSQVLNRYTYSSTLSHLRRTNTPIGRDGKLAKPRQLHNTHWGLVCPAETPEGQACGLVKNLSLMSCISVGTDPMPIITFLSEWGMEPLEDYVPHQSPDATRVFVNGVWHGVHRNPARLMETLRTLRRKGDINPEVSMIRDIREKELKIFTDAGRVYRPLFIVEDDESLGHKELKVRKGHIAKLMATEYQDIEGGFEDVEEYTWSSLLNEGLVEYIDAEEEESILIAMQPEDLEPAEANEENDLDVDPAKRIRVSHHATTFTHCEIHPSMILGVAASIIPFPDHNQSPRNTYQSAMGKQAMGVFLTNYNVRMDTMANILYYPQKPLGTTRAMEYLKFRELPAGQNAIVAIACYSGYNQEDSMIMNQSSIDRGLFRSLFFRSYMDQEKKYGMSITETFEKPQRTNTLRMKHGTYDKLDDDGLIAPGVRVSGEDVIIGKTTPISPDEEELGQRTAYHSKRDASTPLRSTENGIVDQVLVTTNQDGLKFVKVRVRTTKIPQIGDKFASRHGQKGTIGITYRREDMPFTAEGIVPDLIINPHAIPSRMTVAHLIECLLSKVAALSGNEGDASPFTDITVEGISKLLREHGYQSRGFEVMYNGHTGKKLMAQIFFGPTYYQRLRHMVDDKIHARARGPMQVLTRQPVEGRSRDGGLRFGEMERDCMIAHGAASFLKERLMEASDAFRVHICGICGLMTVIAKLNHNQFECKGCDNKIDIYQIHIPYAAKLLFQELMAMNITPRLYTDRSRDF
# No constants are given. Whether binding was seen depends on the method and setting. Some binding calls cover weakened binding; strength is not graded here.
# Biological target: Rpb3-TAP (yeast) (UniProt P16370)
# Assay: tandem affinity purification (TAP) with silver staining; Pol II complexes purified from yeast YYW122 through Rpb3-TAP; silver-stained gel
substance,measurement,value
Rpb2 (from UniProt P08518 1-1224),binding,binds
